Record: PubChem BioAssay AID1259405 (NCATS, 2018)

Assay: 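Knock-downs that lift recombinant protein yield in hamster ovary cells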 (primary screen)
Cells: Chinese hamster CHO-K1 ovary cells with stable secreted eGFP expression
Knock-down reagent: single siRNA against mouse genes, 0.8 pmol siRNA per well (2 µl of 400 nM stock)
Time to read-out: 3 days
Measured: 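Percent of the per-plate non-targeting control median for intracellular GFP per well by laser scanning cytometry and for cell viability by ATP luminescence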
Reading the numbers: GFP, % of control: higher = more GFP per well, higher productivity; viability (ATP), % of control: higher = more viable cells (more ATP)
Hit rule: 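a knock-down is called active if GFP reaches 120% or more of non-targeting control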
The whole screen tested about 50,000 reagents; shown is a part drawn at random. About 4,000 of them (8%) were called active. 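Mouse siRNA library applied to hamster cells; one well for each siRNA.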 The numbers tell different reagents against one gene apart.

How did the screen score Kcna6 #1?
GFP, % of control: 105; viability (ATP), % of control: 102; outcome: inactive

For Kcna6 #2, what does the deposit list?
GFP, % of control: 55.9; viability (ATP), % of control: 59.1; outcome: inactive

With Kcna6 #3, what does the deposit list?
GFP, % of control: 73.5; viability (ATP), % of control: 56.4; outcome: inactive

What is on record for Zfp462 (zinc finger protein 462) #1?
GFP, % of control: 83.5; viability (ATP), % of control: 53.9; outcome: inactive

What did the screen give for Zfp462 (zinc finger protein 462) #2?
GFP, % of control: 62.5; viability (ATP), % of control: 84.4; outcome: inactive

What is on record for Zfp462 (zinc finger protein 462) #3?
GFP, % of control: 113; viability (ATP), % of control: 89.9; outcome: inactive

With Nsmce3 (NSE3 homolog, SMC5-SMC6 complex component) #1, what was measured?
GFP, % of control: 58.2; viability (ATP), % of control: 60.2; outcome: inactive

What did the screen give for Nsmce3 (NSE3 homolog, SMC5-SMC6 complex component) #2?
GFP, % of control: 78.7; viability (ATP), % of control: 84.7; outcome: inactive

With Nsmce3 (NSE3 homolog, SMC5-SMC6 complex component) #3, how do the results read?
GFP, % of control: 83.9; viability (ATP), % of control: 67.5; outcome: inactive

What is on record for Nmnat1 (nicotinamide nucleotide adenylyltransferase 1) #1?
GFP, % of control: 31.3; viability (ATP), % of control: 51.2; outcome: inactive

Which result is listed for Nmnat1 (nicotinamide nucleotide adenylyltransferase 1) #2?
GFP, % of control: 126; viability (ATP), % of control: 125; outcome: active

For Nmnat1 (nicotinamide nucleotide adenylyltransferase 1) #3, how do the results read?
GFP, % of control: 70.7; viability (ATP), % of control: 86.2; outcome: inactive

How did the screen score Or4k41 (olfactory receptor family 4 subfamily K member 41) #1?
GFP, % of control: 99.9; viability (ATP), % of control: 86.9; outcome: inactive

With Or4k41 (olfactory receptor family 4 subfamily K member 41) #2, how do the results read?
GFP, % of control: 79.2; viability (ATP), % of control: 60.6; outcome: inactive

What did the screen give for Or4k41 (olfactory receptor family 4 subfamily K member 41) #3?
GFP, % of control: 102; viability (ATP), % of control: 107; outcome: inactive

What is on record for Rnpep (arginyl aminopeptidase (aminopeptidase B)) #1?
GFP, % of control: 167; viability (ATP), % of control: 99.3; outcome: active

What is on record for Rnpep (arginyl aminopeptidase (aminopeptidase B)) #2?
GFP, % of control: 70.8; viability (ATP), % of control: 56.7; outcome: inactive

What did the screen give for Rnpep (arginyl aminopeptidase (aminopeptidase B)) #3?
GFP, % of control: 47.7; viability (ATP), % of control: 61.9; outcome: inactive

How did the screen score Erg (ETS transcription factor) #1?
GFP, % of control: 79.6; viability (ATP), % of control: 76.5; outcome: inactive

For Erg (ETS transcription factor) #2, how do the results read?
GFP, % of control: 119; viability (ATP), % of control: 52; outcome: inactive

What is on record for Erg (ETS transcription factor) #3?
GFP, % of control: 118; viability (ATP), % of control: 56.4; outcome: inactive

Which result is listed for Mbd1 (methyl-CpG binding domain protein 1) #1?
GFP, % of control: 77.7; viability (ATP), % of control: 73.4; outcome: inactive

What did the screen give for Mbd1 (methyl-CpG binding domain protein 1) #2?
GFP, % of control: 65.9; viability (ATP), % of control: 66.4; outcome: inactive

What is on record for Mbd1 (methyl-CpG binding domain protein 1) #3?
GFP, % of control: 75.1; viability (ATP), % of control: 60.7; outcome: inactive

For Dync1h1 (dynein cytoplasmic 1 heavy chain 1) #1, what was measured?
GFP, % of control: 80.8; viability (ATP), % of control: 77; outcome: inactive

With Dync1h1 (dynein cytoplasmic 1 heavy chain 1) #2, what was measured?
GFP, % of control: 70.1; viability (ATP), % of control: 71.3; outcome: inactive

In a second layout: 3 of the entries above.
Target gene,reagent no.,"GFP, % of control","viability (ATP), % of control",outcome
Rnpep (arginyl aminopeptidase (aminopeptidase B)),2,70.8,56.7,inactive
Rnpep (arginyl aminopeptidase (aminopeptidase B)),3,47.7,61.9,inactive
Erg (ETS transcription factor),1,79.6,76.5,inactive

More records follow:
With Ern1 (endoplasmic reticulum to nucleus signalling 1), what does the deposit list?
GFP, % of control: 75.1; viability (ATP), % of control: 57.6; outcome: inactive

With Qpctl (glutaminyl-peptide cyclotransferase-like) #1, what does the deposit list?
GFP, % of control: 117; viability (ATP), % of control: 99.4; outcome: inactive

What is on record for Qpctl (glutaminyl-peptide cyclotransferase-like) #2?
GFP, % of control: 54.4; viability (ATP), % of control: 38.8; outcome: inactive

With Qpctl (glutaminyl-peptide cyclotransferase-like) #3, how do the results read?
GFP, % of control: 91.2; viability (ATP), % of control: 53.8; outcome: inactive

For Garin2 (golgi associated RAB2 interactor 2) #1, what does the deposit list?
GFP, % of control: 123; viability (ATP), % of control: 125; outcome: active

With Garin2 (golgi associated RAB2 interactor 2) #2, what does the deposit list?
GFP, % of control: 56.3; viability (ATP), % of control: 43.9; outcome: inactive

What did the screen give for Garin2 (golgi associated RAB2 interactor 2) #3?
GFP, % of control: 141; viability (ATP), % of control: 129; outcome: active

With Cd200r2 (Cd200 receptor 2) #1, what was measured?
GFP, % of control: 81.8; viability (ATP), % of control: 54.2; outcome: inactive

How did the screen score Cd200r2 (Cd200 receptor 2) #2?
GFP, % of control: 67.5; viability (ATP), % of control: 82.4; outcome: inactive

With Cd200r2 (Cd200 receptor 2) #3, what does the deposit list?
GFP, % of control: 62; viability (ATP), % of control: 43.4; outcome: inactive

With E230015B07Rik (RIKEN cDNA E230015B07 gene) #1, how do the results read?
GFP, % of control: 59.1; viability (ATP), % of control: 64.7; outcome: inactive

For E230015B07Rik (RIKEN cDNA E230015B07 gene) #2, what was measured?
GFP, % of control: 61.3; viability (ATP), % of control: 52; outcome: inactive

What did the screen give for E230015B07Rik (RIKEN cDNA E230015B07 gene) #3?
GFP, % of control: 94.8; viability (ATP), % of control: 46.9; outcome: inactive

With Rfx3 (regulatory factor X, 3 (influences HLA class II expression)) #1, what does the deposit list?
GFP, % of control: 42.3; viability (ATP), % of control: 61.2; outcome: inactive

For Rfx3 (regulatory factor X, 3 (influences HLA class II expression)) #2, what was measured?
GFP, % of control: 68.7; viability (ATP), % of control: 80.5; outcome: inactive

With Rfx3 (regulatory factor X, 3 (influences HLA class II expression)) #3, what does the deposit list?
GFP, % of control: 25.3; viability (ATP), % of control: 34.5; outcome: inactive
